In test [1] the target is AMPKα2, endogenous (human (endogenous in 293T)) (UniProt P54646). Nature of the test: co-IP.
For test [2], the target named is AMPKβ1, endogenous (human (endogenous in 293T)) (UniProt Q9Y478). Put plainly: co-IP.

Sequences of proteins named here, by UniProt entry; tags and fusion partners are left off.
UniProt P54646: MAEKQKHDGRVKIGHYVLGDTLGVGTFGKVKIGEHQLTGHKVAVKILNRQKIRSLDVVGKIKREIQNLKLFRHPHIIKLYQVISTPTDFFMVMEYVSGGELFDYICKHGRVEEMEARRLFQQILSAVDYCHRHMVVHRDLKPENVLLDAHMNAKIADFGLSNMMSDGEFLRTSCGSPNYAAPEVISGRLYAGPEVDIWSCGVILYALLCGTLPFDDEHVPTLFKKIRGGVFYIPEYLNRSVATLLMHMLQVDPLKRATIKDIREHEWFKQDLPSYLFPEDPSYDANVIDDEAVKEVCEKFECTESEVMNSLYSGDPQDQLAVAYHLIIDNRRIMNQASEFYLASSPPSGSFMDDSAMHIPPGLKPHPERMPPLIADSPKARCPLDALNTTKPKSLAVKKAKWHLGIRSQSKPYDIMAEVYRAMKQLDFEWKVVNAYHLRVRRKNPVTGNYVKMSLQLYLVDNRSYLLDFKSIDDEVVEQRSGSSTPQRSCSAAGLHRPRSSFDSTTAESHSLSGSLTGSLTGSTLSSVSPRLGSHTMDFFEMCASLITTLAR
UniProt Q9Y478: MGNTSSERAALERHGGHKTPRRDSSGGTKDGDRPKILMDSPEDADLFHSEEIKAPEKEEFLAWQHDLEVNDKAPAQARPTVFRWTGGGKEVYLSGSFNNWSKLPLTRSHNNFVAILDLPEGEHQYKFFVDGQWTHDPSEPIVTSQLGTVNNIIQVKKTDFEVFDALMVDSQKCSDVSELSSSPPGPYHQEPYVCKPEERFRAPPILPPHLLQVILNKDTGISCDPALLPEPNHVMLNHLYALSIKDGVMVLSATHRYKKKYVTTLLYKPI
UniProt Q9UKV0: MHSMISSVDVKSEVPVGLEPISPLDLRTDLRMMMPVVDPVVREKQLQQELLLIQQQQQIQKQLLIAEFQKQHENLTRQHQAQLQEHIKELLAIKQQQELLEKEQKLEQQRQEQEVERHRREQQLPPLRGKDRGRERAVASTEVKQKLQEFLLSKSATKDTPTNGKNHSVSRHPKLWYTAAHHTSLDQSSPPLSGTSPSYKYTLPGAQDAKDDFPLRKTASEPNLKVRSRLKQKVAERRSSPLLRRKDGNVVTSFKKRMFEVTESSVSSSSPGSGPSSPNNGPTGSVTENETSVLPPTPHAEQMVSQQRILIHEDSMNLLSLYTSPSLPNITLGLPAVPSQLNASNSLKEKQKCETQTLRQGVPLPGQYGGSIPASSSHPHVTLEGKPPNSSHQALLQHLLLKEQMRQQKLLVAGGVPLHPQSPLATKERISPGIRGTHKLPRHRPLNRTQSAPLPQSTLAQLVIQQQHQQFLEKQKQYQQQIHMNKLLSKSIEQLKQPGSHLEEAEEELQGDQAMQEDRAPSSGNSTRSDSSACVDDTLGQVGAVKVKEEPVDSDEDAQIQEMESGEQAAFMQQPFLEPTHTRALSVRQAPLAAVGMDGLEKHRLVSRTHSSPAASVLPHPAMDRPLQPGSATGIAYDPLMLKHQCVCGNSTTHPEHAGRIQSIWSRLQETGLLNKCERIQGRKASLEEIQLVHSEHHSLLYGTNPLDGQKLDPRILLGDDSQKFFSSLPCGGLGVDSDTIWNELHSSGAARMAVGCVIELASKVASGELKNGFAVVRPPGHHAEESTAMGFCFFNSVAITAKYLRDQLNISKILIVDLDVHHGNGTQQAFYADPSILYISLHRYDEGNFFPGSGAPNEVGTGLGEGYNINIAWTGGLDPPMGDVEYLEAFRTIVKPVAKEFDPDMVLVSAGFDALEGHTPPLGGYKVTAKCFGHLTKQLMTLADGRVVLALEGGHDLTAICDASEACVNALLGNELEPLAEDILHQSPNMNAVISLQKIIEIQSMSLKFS

No constants are given. Whether binding was seen depends on the method and setting. Binding seen in cells or lysates may run through a third protein. Some results given as binding are weak or reduced against the parent protein; the word gives no strength.

Regarding “HDAC9, endogenous (from UniProt Q9UKV0 1-1011) (enzyme)”, in test [1], the binding result is reported as “binds”.

B1: ASPP2 (apoptosis-stimulating of p53 protein 2), endogenous (protein, UniProt Q13625 1-1128)
chain: MMPMFLTVYLSNNEQHFTEVPVTPETICRDVVDLCKEPGESDCHLAEVWCGSERPVADNERMFDVLQRFGSQRNEVRFFLRHERPPGRDIVSGPRSQDPSLKRNGVKVPGEYRRKENGVNSPRMDLTLAELQEMASRQQQQIEAQQQLLATKEQRLKFLKQQDQRQQQQVAEQEKLKRLKEIAENQEAKLKKVRALKGHVEQKRLSNGKLVEEIEQMNNLFQQKQRELVLAVSKVEELTRQLEMLKNGRIDSHHDNQSAVAELDRLYKELQLRNKLNQEQNAKLQQQRECLNKRNSEVAVMDKRVNELRDRLWKKKAALQQKENLPVSSDGNLPQQAASAPSRVAAVGPYIQSSTMPRMPSRPELLVKPALPDGSLVIQASEGPMKIQTLPNMRSGAASQTKGSKIHPVGPDWSPSNADLFPSQGSASVPQSTGNALDQVDDGEVPLREKEKKVRPFSMFDAVDQSNAPPSFGTLRKNQSSEDILRDAQVANKNVAKVPPPVPTKPKQINLPYFGQTNQPPSDIKPDGSSQQLSTVVPSMGTKPKPAGQQPRVLLSPSIPSVGQDQTLSPGSKQESPPAAAVRPFTPQPSKDTLLPPFRKPQTVAASSIYSMYTQQQAPGKNFQQAVQSALTKTHTRGPHFSSVYGKPVIAAAQNQQQHPENIYSNSQGKPGSPEPETEPVSSVQENHENERIPRPLSPTKLLPFLSNPYRNQSDADLEALRKKLSNAPRPLKKRSSITEPEGPNGPNIQKLLYQRTTIAAMETISVPSYPSKSASVTASSESPVEIQNPYLHVEPEKEVVSLVPESLSPEDVGNASTENSDMPAPSPGLDYEPEGVPDNSPNLQNNPEEPNPEAPHVLDVYLEEYPPYPPPPYPSGEPEGPGEDSVSMRPPEITGQVSLPPGKRTNLRKTGSERIAHGMRVKFNPLALLLDSSLEGEFDLVQRIIYEVDDPSLPNDEGITALHNAVCAGHTEIVKFLVQFGVNVNAADSDGWTPLHCAASCNNVQVCKFLVESGAAVFAMTYSDMQTAADKCEEMEEGYTQCSQFLYGVQEKMGIMNKGVIYALWDYEPQNDDELPMKEGDCMTIIHREDEDEIEWWWARLNDKEGYVPRNLLGLYPRIKPRQRSLA
As to B1, in test [2], the binding result was “binds”.
